We go through 42 sequences from article PMC7819943, “Rice protein-binding microarrays: a tool to detect cis-acting elements near promoter regions in rice”.

This is one part of the list.

This test deals with T1, OsSMF1 (Oryza sativa, UniProt Q6ZLB0 1-436).
T1 sequence: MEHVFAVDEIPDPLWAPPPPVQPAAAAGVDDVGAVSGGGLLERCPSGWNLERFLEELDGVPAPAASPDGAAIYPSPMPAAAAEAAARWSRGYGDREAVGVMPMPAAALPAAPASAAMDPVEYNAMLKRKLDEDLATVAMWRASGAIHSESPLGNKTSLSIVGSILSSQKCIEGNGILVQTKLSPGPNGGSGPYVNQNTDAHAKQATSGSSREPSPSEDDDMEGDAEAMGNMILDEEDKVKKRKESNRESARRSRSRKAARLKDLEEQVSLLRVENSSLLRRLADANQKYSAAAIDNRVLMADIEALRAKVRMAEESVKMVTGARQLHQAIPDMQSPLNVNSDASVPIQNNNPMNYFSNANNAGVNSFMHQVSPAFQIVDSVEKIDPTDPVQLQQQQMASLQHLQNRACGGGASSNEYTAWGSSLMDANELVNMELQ
The test can be described thus: protein-binding microarray (RPBM); PBS, 2% BSA, 51.3 ng/ul salmon testes DNA, 50 uM zinc acetate, 200 nM TF, 25 C, 1 h; high values mean tight binding. The note with it: protein: recombinant; tags: N-terminal polyhistidine and DsRed monomer fusion (pET32a); chain copies: 2; label: CyDye5-dUTP incorporated in the synthesized complementary strand; 3' TTTTT single-stranded linker to array surface; dsDNA, one strand shown. In outline: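 Ni–NTA purification followed expression in E. coli BL21-CodonPlus of transcription factors fused N-terminally to a polyhistidine tag and DsRed. At 200 nM in PBS with 2% BSA, salmon testes DNA and 50 µM zinc acetate, the protein was incubated for 1 h at 25 °C with a custom Agilent array that had been primer-extended with Cy5-dUTP and blocked with 2% BSA. After washing, the array was read on an Axon 4000B scanner. The binding signal is per-feature fluorescence intensity in arbitrary units.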
As for “CACCTCCACGTCCATCTCTCTCTCTCTCTCCTCTCTCCTCCGGAGTCACCTAGTGCAG”, the binding signal was 5010 fluorescence intensity (a.u.).
As for “ACGGCCTCCTCCCCTCTCCATCGATCGAGCGAGACGCTCCCGGAGTCACCTAGTGCAG”, the figure is 3250 fluorescence intensity (a.u.).
As for “AGTTGCTTTCAGAGGTGAAGATTTGTCATGTTGTAAGATGCGGAGTCACCTAGTGCAG”, the figure is 3420 fluorescence intensity (a.u.).
For “AGGCGCGGTTAGCCGGAGAGGTCTCTTCGTCGTATCCATTCGGAGTCACCTAGTGCAG”, the binding signal is 21600 fluorescence intensity (a.u.).
To “GTGGGCCCGGTCAAAGCGACACGGACACGTGCCGGTGAGGCGGAGTCACCTAGTGCAG” belongs 6710 fluorescence intensity (a.u.).
For “ATGCGATTCGAGGGCGAATGGGGATGACGCACGAAGCCCCCGGAGTCACCTAGTGCAG”, the binding signal was 4860 fluorescence intensity (a.u.).
As for “ATATATTTTCTTAAGTCTAATGCCACATAAGCGTCACATCCGGAGTCACCTAGTGCAG”, the figure is 10900 fluorescence intensity (a.u.); as for “TGGGCCCACCCCTCCACTCGCCCTCCTCTTCCCGCCACGTCGGAGTCACCTAGTGCAG”, 6190 fluorescence intensity (a.u.); as for “GCCGCCCGGAGGTGGGGCCCACCTCGTCAGTGTCAGTGTGCGGAGTCACCTAGTGCAG”, 3940 fluorescence intensity (a.u.).
To “CTTCTCTATGCTCGCATCTAGCTCGCAGCTCCGTCCATCTCGGAGTCACCTAGTGCAG” belongs 3620 fluorescence intensity (a.u.); to “TCTCTCCACTCTTCTTTCCTCCACTTCAGCATTTAGCCGGCGGAGTCACCTAGTGCAG”, 3140 fluorescence intensity (a.u.).
As for “ATCCACGAGGGCAAGCAAGCAAGCAAGCTCCACCTCTCTGCGGAGTCACCTAGTGCAG”, the figure is 3220 fluorescence intensity (a.u.).
With “ATGGACGCCAGAGTTTACATGGCATTGGATGCTTATTAAACGGAGTCACCTAGTGCAG”, the binding signal was 27300 fluorescence intensity (a.u.).
In the case of “GTGTAGAATTTATATGTTGATAGGGTAGTTAGAAGAAAATCGGAGTCACCTAGTGCAG”, the binding signal is 15700 fluorescence intensity (a.u.).
As for “GTCAATTTTCTCATATAACTTGTTTGAATTACGTTAGATACGGAGTCACCTAGTGCAG”, the figure is 15600 fluorescence intensity (a.u.); as for “AGCATGTTGAGTATCAAACATAAGATCTCAGGTTAAAACCCGGAGTCACCTAGTGCAG”, 3420 fluorescence intensity (a.u.).
As to “TGTAATTGGCTGAGAGACCGTAACAACGTGACATGGCTCACGGAGTCACCTAGTGCAG”, the binding signal was 5860 fluorescence intensity (a.u.).
As for “TGAGGTCCACATATACTCAGACACGCTAATCAAACCACCCCGGAGTCACCTAGTGCAG”, the figure is 3140 fluorescence intensity (a.u.).
To “GAGAGTTATATATATATATATATATATATGGGGTTTTGCGCGGAGTCACCTAGTGCAG” belongs 3740 fluorescence intensity (a.u.); to “GGAGAATTCTGCAAAATTATCATCGTCCCCACCGTAGCGCCGGAGTCACCTAGTGCAG”, 3550 fluorescence intensity (a.u.); to “TAGCTCAATGACTCGATCCAACTCTGTAAACCGTTGAGAGCGGAGTCACCTAGTGCAG”, 4230 fluorescence intensity (a.u.).
To “GGATCCCATTAACACGTGTCACCGTGGCATGCCACGTCATCGGAGTCACCTAGTGCAG” belongs 51400 fluorescence intensity (a.u.).
On to “CTCCTGTATAACACAGCTGTCCAGTCAAACACCCAAGCTGCGGAGTCACCTAGTGCAG”, for which the binding signal is 3460 fluorescence intensity (a.u.).
As for “TGATGGTGACACACAATTACAATATTATTTGTACTTATTTCGGAGTCACCTAGTGCAG”, the figure is 3340 fluorescence intensity (a.u.); as for “AGCAGGATTTTCGTTACTGTTGGTTTTCAATATATATGAACGGAGTCACCTAGTGCAG”, 3630 fluorescence intensity (a.u.).
As for “TGGGCCGGCGCAGATTGCGGTTACGTGTGGCCCATCTATACGGAGTCACCTAGTGCAG”, the figure is 3340 fluorescence intensity (a.u.); as for “TATGTCACTTGCACCGCCACTAGCAACCAATATCAAACCACGGAGTCACCTAGTGCAG”, 3820 fluorescence intensity (a.u.).
Regarding “GCCAAAATCTTGGCACTACTAAATTTAGTAGTATAGAATTCGGAGTCACCTAGTGCAG”, the binding signal is 3660 fluorescence intensity (a.u.).
As for “CCACGTCCAACTCGGACTAGAAACTAATGGAAACCCGAAACGGAGTCACCTAGTGCAG”, the figure is 3330 fluorescence intensity (a.u.); as for “AGGGAAGCAAAGGCCCTCCTCCACCCTAGAGCATTCTCTCCGGAGTCACCTAGTGCAG”, 3520 fluorescence intensity (a.u.); as for “GGATGTCATGATAATTGACTTATGACAATGTGATTATTTCCGGAGTCACCTAGTGCAG”, 3280 fluorescence intensity (a.u.).
Consider “GATTAGTTATGACGACATTTGCCAAGTTTAATCATGCATTCGGAGTCACCTAGTGCAG”, for which the binding signal was 4040 fluorescence intensity (a.u.).
For “TTGATTGAAATTGGAGATGATGTGACTGAAAAGTTGTGTGCGGAGTCACCTAGTGCAG”, the binding signal was 4220 fluorescence intensity (a.u.).
To “ATATTTGATTCTAACCGATCTCGCTAGCTAGCTCCTAATTCGGAGTCACCTAGTGCAG” belongs 29000 fluorescence intensity (a.u.); to “CGTCCTGCCGGTGGCCAGACAGCGCGTTCATCGCCAAGGACGGAGTCACCTAGTGCAG”, 3240 fluorescence intensity (a.u.); to “CTTCGCTCTCTTTTCCATTGCAGAGCCCTCACGCTTCCGCCGGAGTCACCTAGTGCAG”, 3570 fluorescence intensity (a.u.).
As for “ACCCATATAATTAAGGTGCCAATGCTGCTAATACTCTCTCCGGAGTCACCTAGTGCAG”, the figure is 46100 fluorescence intensity (a.u.); as for “AGGTGGCCGCCACCGCCACCGCCACGCCACTCCTCTCCTCCGGAGTCACCTAGTGCAG”, 6990 fluorescence intensity (a.u.).
As for “TCCGTTCCGTGCTCTGTGTCCCATACTCTACGGCCACGCCCGGAGTCACCTAGTGCAG”, the binding signal is 3200 fluorescence intensity (a.u.).
For the sequence “GACCCAAAATTGTAAGGGCAGAATAGTAAATTGACGTGGACGGAGTCACCTAGTGCAG”, the binding signal was 6550 fluorescence intensity (a.u.).
As for “GAATACTGATCGATACTAGTCCTGCTGACCACCCTGACCACGGAGTCACCTAGTGCAG”, the figure is 4000 fluorescence intensity (a.u.).
On to “CCTCTAATAACTGGGCTACCACGTAGATGCCACATCATTGCGGAGTCACCTAGTGCAG”, for which the binding signal is 18400 fluorescence intensity (a.u.).
